# This is one part of the list.
# Amino acid sequences for entries named in this document (tags omitted).
# UniProt Q0JBA9, entry or part of it: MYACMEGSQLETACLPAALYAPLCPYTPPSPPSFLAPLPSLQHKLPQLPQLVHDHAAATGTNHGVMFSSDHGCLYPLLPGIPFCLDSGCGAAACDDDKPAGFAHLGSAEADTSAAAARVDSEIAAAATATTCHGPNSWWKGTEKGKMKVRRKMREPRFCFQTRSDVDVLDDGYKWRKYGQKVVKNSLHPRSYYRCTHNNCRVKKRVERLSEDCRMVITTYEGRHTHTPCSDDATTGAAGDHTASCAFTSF
# Target: OsWRKY34 (Oryza sativa, UniProt Q0JBA9 1-250)
# Test: protein-binding microarray (RPBM); PBS, 2% BSA, 51.3 ng/ul salmon testes DNA, 50 uM zinc acetate, 200 nM TF, 25 C, 1 h; high values mean tight binding
# Settings: protein: recombinant; tags: N-terminal polyhistidine and DsRed monomer fusion (pET32a); label: CyDye5-dUTP incorporated in the synthesized complementary strand; 3' TTTTT single-stranded linker to array surface; dsDNA, one strand shown
# Procedure, shortened: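 Ni–NTA purification followed expression in E. coli BL21-CodonPlus of transcription factors fused N-terminally to a polyhistidine tag and DsRed. At 200 nM in PBS with 2% BSA, salmon testes DNA and 50 µM zinc acetate, the protein was incubated for 1 h at 25 °C with a custom Agilent array that had been primer-extended with Cy5-dUTP and blocked with 2% BSA. After washing, the array was read on an Axon 4000B scanner. The binding signal is per-feature fluorescence intensity in arbitrary units.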
row,Sequence,binding signal
1,TTCGATGCCACACTAATCTTCCCATAACTGAATTGTTAATCGGAGTCACCTAGTGCAG,8750 fluorescence intensity (a.u.)
2,GCTCGCCGCGTGCTCTCGTCATCCATCCGACCCACGCCCGCGGAGTCACCTAGTGCAG,11000 fluorescence intensity (a.u.)
3,CTGTTATCGAGCAATTTCAACAAGGGCGGGGCCTTAATCTCGGAGTCACCTAGTGCAG,8870 fluorescence intensity (a.u.)
4,CTGCTTTTATAGTTTGGTGGGCTTTTCTTTGCTAGTGGGCCGGAGTCACCTAGTGCAG,10600 fluorescence intensity (a.u.)
5,GCACCTCTGCATCTCTGCCATCTCCTTCCCCACCCCACCGCGGAGTCACCTAGTGCAG,9150 fluorescence intensity (a.u.)
6,TGAGTCCCTTCGCGCCACTTTTGCTTTGACCATGGTGAACCGGAGTCACCTAGTGCAG,10600 fluorescence intensity (a.u.)
7,ATCCATGTTATCTCACTGCATTTCTTGTTCATGAATATAACGGAGTCACCTAGTGCAG,10700 fluorescence intensity (a.u.)
8,ATGTATGCCCCTATGTAGTTTGCCCTCAGTTTTTATTTATCGGAGTCACCTAGTGCAG,10200 fluorescence intensity (a.u.)
9,TGTTTCTATCTCGTATCTTCTCTTCCAAGCATGTATTTCCCGGAGTCACCTAGTGCAG,8650 fluorescence intensity (a.u.)
10,TATTGTTTATTGGGTGCTTGATTCTCGTGGCCAGGCCAACCGGAGTCACCTAGTGCAG,13000 fluorescence intensity (a.u.)
11,GTATCTCCTGCATGAGCACCAGGCTTTTATTCATTTTTGTCGGAGTCACCTAGTGCAG,8910 fluorescence intensity (a.u.)
12,GCTCGCATTTCCACTCTCTCTATATCTTGTGTGGCGCACTCGGAGTCACCTAGTGCAG,9040 fluorescence intensity (a.u.)
13,TTATGGCACGCTAAATAACCCGGCTGATCAGAGTGACGTCCGGAGTCACCTAGTGCAG,8020 fluorescence intensity (a.u.)
14,CGCCTCCGGCCTCCTCACGCACTGCCGCACCACGTCGCACCGGAGTCACCTAGTGCAG,9020 fluorescence intensity (a.u.)
15,GTGACGGCGCCTCCAGCTCCATCGCTTGCCTTTCTCTTTGCGGAGTCACCTAGTGCAG,9270 fluorescence intensity (a.u.)
16,CGTCGTCTCGCCGCCACCGATCCCCGCGCCACCGCCGTCGCGGAGTCACCTAGTGCAG,9610 fluorescence intensity (a.u.)
17,GTGGTTTCATCTATTTTGTGTTGTTTACTCGTATCTGTTACGGAGTCACCTAGTGCAG,10600 fluorescence intensity (a.u.)
18,ATAAGTGAGAAGGATTGGGGTGATCATTGTCTGTAATTCACGGAGTCACCTAGTGCAG,11100 fluorescence intensity (a.u.)
19,GAGACCATCCAACGCATCCATTCCGTCCTCTTCGATTGCTCGGAGTCACCTAGTGCAG,8580 fluorescence intensity (a.u.)
20,ATCACTAACCTCCTTTTCATCCCTCTCTACCGCTTTGCCTCGGAGTCACCTAGTGCAG,11000 fluorescence intensity (a.u.)
21,CATAGGAACATTTTGACTCCAGTTACCTTCTGACCATTGGCGGAGTCACCTAGTGCAG,9710 fluorescence intensity (a.u.)

# Some of the entries so far, with bars between the fields:
row | Sequence | binding signal
20 | ATCACTAACCTCCTTTTCATCCCTCTCTACCGCTTTGCCTCGGAGTCACCTAGTGCAG | 11000 fluorescence intensity (a.u.)
21 | CATAGGAACATTTTGACTCCAGTTACCTTCTGACCATTGGCGGAGTCACCTAGTGCAG | 9710 fluorescence intensity (a.u.)

# (cont.)

row,Sequence,binding signal
1,CCGCTGATTCCGTTTGCCCTTGAGATGGCCCTGCCAACATCGGAGTCACCTAGTGCAG,8440 fluorescence intensity (a.u.)
2,TGGGGCTTCTGGTGTGCTCGGTGGTGTTCGCCGCGGCGGCCGGAGTCACCTAGTGCAG,14200 fluorescence intensity (a.u.)
3,GTTCGTGCCAGGGCCGTTCAACCTCGGAAAGTACGGGGTTCGGAGTCACCTAGTGCAG,8240 fluorescence intensity (a.u.)
4,CCCTACCACCGATGCCATGAAATTTCTTGTCGCTGCATCTCGGAGTCACCTAGTGCAG,9300 fluorescence intensity (a.u.)
5,AACCCAACCCACCACCGCGAGCACCAAATCCAATCCATAGCGGAGTCACCTAGTGCAG,9080 fluorescence intensity (a.u.)
6,ACTATAATCAAATCATCCACCATATCGTCGACCGACCAACCGGAGTCACCTAGTGCAG,8310 fluorescence intensity (a.u.)
7,TCAACTCACTTTTGTTAATTTTGTATATTGTTTGTGCTTTCGGAGTCACCTAGTGCAG,8100 fluorescence intensity (a.u.)
8,CTGCCCTTTACGCCCGGGGACCATGCATCATATCGACAACCGGAGTCACCTAGTGCAG,8470 fluorescence intensity (a.u.)
9,GGGGCTTAAATCAAGTAGCTAAGAGGGCGGTGGTGGCTGACGGAGTCACCTAGTGCAG,8320 fluorescence intensity (a.u.)
10,GTGATGTGTTCGACCGGGCCCTGCTAGCGATTGATCAAAACGGAGTCACCTAGTGCAG,8760 fluorescence intensity (a.u.)
11,ACAACCCATTACTACTACTCCCTCATGCACCTGTAATTCTCGGAGTCACCTAGTGCAG,8650 fluorescence intensity (a.u.)
12,ATACCATTTCCTCATTTTCGATAACCGTGTGCCTATTCTCCGGAGTCACCTAGTGCAG,8890 fluorescence intensity (a.u.)
13,ATTTTATTTGGTTGTATGCATATACCTCCTGTTTTTTAAGCGGAGTCACCTAGTGCAG,8770 fluorescence intensity (a.u.)
14,TCTTCAATCCCAGCTTTGCCTCTAAATCCAGCAGACGCATCGGAGTCACCTAGTGCAG,9090 fluorescence intensity (a.u.)
15,TTTTGCAAAGTTTATTTGGAGGGCAGTTCAGTTTTCTTTTCGGAGTCACCTAGTGCAG,9380 fluorescence intensity (a.u.)
16,CTGGCGGCGATAGGTCGTCTTCCTCGTTGCCGGTCAGCACCGGAGTCACCTAGTGCAG,8380 fluorescence intensity (a.u.)
17,TTTACACTTGTATTCTAATTTTACGTTCTTTTTTATTTCTCGGAGTCACCTAGTGCAG,8750 fluorescence intensity (a.u.)
18,CCACACAATCTTGCCCTGTTTTTATTTGCCGCTTGTTAGTCGGAGTCACCTAGTGCAG,8040 fluorescence intensity (a.u.)
19,GCCCACCTCGCTGTCTCCACGCCCGACTTCGACGCCGCGGCGGAGTCACCTAGTGCAG,9100 fluorescence intensity (a.u.)
20,AAGGTGGGATATTTGAGGGGTTTTGTGGCTGTATTATTTGCGGAGTCACCTAGTGCAG,16100 fluorescence intensity (a.u.)
21,TTCAATGGAAGTATCAATCGTTGACCTTCCAACAATTATTCGGAGTCACCTAGTGCAG,8100 fluorescence intensity (a.u.)

# Source: article PMC7819943, “Rice protein-binding microarrays: a tool to detect cis-acting elements near promoter regions in rice”
